The values that follow are results of earlier work, collected in EP1079826B1, “USE OF INDIGOID BISINDOLE DERIVATIVES FOR THE MANUFACTURE OF A MEDICAMENT TO INHIBIT CYCLIN DEPENDENT KINASES” (CNRS, Centre National de la Recherche Scientifique, priority 1998, dated 1999).

Where only a bound is given, the exact number is not on record here.

For one series, the system named is PKG. Particulars: Table 1, known inhibitors; cited from earlier work.
The subject of a further series is PKC. Particulars: Table 1, known inhibitors; cited from earlier work.

The IC50 is the concentration needed to halve the response being measured. On to `CC[C@H](CO)Nc1nc(NCc2ccccc2)c2ncn(C(C)C)c2n1` (racemic) [Roscovitine, roscovitine], for which the IC50 in the series with PKG was over 1000 µM; in the series with PKC, over 100 µM.
